The values below come from paper PMC9110030.

Chains of the proteins cited; added tags and fusions are not shown. Residues count along the entry.
UniProt P60615, 22-95: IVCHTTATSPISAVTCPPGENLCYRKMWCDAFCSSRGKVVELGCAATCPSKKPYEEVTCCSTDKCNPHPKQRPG

These are yes or no findings as the source states them, for the method shown. Binding seen in cells or lysates may run through a third protein. A yes stands for co-enrichment or nearness to the bait. Other partners may have been found. No binding means not detected with the bait.

The target of this test is α-Bungarotoxin (UniProt P60615). Briefly: affinity purification with mass spectrometry; only the target purified.

For “Drosophila nAChR β1 subunit (from UniProt P04755 25-521) (receptor)”, the binding result is reported as “no binding”.
